Results published in patent US10064928B2, “Peptides and combination of peptides for use in immunotherapy against CLL and other cancers” (IMMATICS BIOTECHNOLOGIES GMBH, priority 2015, dated 2018).

Tested on: other tumor types (e.g. non-Hodgkin lymphoma, lung cancer)
Assay: Presentation of the peptides on additional tumor types (LC-MS, Tables 4A/4B, FIG. 1)
Set-up: species or system human
Conditions: for Additional Entities: Table 4B: additional tumour types with over-presentation (including specific presentation) on more than 5% of the measured tumour samples, or presentation on more than 5% with ratio of geometric means tumour vs normal tissues larger than 3, extended normal tissue panel; for Other relevant organs/diseases: Table 4A: additional tumor types where the peptide was over-presented on more than 5% of the measured tumor samples, or presented on more than 5% with ratio of geometric means tumor vs normal tissues larger than 3

26 (AVLLVLPLV; listed as Homo sapiens) [compound 26]
Additional Entities: NHL, NSCLC

38 (FIMEGGAMV; listed as Homo sapiens) [compound 38]
Other relevant organs/diseases: NHL
Additional Entities: HNSCC

42 (FLEEGGVVTV; listed as Homo sapiens) [compound 42]
Other relevant organs/diseases: NHL, Melanoma
Additional Entities: SCLC, AML

44 (FLLSINDFL; listed as Homo sapiens) [compound 44]
Other relevant organs/diseases: Melanoma
Additional Entities: RCC, Uterine Cancer, AML, NHL

46 (YIIDSAQAV; listed as Homo sapiens) [compound 46]
Other relevant organs/diseases: NHL

55 (FMEPTLLML; listed as Homo sapiens) [compound 55]
Other relevant organs/diseases: NHL, Urinary bladder cancer
Additional Entities: HNSCC

67 (GLDDVTVEV; listed as Homo sapiens) [compound 67]
Other relevant organs/diseases: HCC, NHL, Melanoma, Esophageal Cancer, OC, Gallbladder Cancer, Bile Duct Cancer
Additional Entities: AML

84 (GVMDVNTAL; listed as Homo sapiens) [compound 84]
Additional Entities: AML, HCC, HNSCC, NHL, NSCLC, GC, RCC

87 (HQIEAVDGEEL; listed as Homo sapiens) [compound 87]
Other relevant organs/diseases: GC, NHL, Esophageal Cancer

110 (LLFDHLEPMEL; listed as Homo sapiens) [compound 110]
Other relevant organs/diseases: NHL

111 (KLWNVAAPLYL; listed as Homo sapiens) [compound 111]
Additional Entities: Melanoma

136 (NLDKLWTLV; listed as Homo sapiens) [compound 136]
Other relevant organs/diseases: GC, Esophageal Cancer
Additional Entities: AML, CRC, Melanoma, NSCLC, Brain Cancer

150 (SLFDQPLSII; listed as Homo sapiens) [compound 150]
Other relevant organs/diseases: NHL

151 (SLFDSAYGA; listed as Homo sapiens) [compound 151]
Other relevant organs/diseases: AML

152 (SLIRILQTI; listed as Homo sapiens) [compound 152]
Other relevant organs/diseases: HCC
Additional Entities: SCLC

156 (SLNIGDVQL; listed as Homo sapiens) [compound 156]
Other relevant organs/diseases: NHL
Additional Entities: AML

158 (SLPEAPLDV; listed as Homo sapiens) [compound 158]
Other relevant organs/diseases: NHL, AML, Uterine Cancer

159 (SLQEEKLIYV; listed as Homo sapiens) [compound 159]
Other relevant organs/diseases: Brain Cancer, NHL, MCC, Melanoma, Esophageal Cancer, Urinary bladder cancer
Additional Entities: HNSCC

161 (SMDDGMINV; listed as Homo sapiens) [compound 161]
Other relevant organs/diseases: CRC, NHL, Gallbladder Cancer, Bile Duct Cancer
Additional Entities: SCLC, Melanoma, Uterine Cancer, AML, HNSCC

173 (TVIENIHTI; listed as Homo sapiens) [compound 173]
Additional Entities: CRC, HCC, Melanoma, NHL, NSCLC, OC, Esophageal Cancer, GC, RCC

180 (LLKDGPEIGL; listed as Homo sapiens) [compound 180]
Other relevant organs/diseases: NHL

183 (VLMPTVYQQGV; listed as Homo sapiens) [compound 183]
Other relevant organs/diseases: AML

184 (VLSHNLYTV; listed as Homo sapiens) [compound 184]
Additional Entities: NHL

188 (VMGDIPAAV; listed as Homo sapiens) [compound 188]
Other relevant organs/diseases: NHL, AML, Gallbladder Cancer, Bile Duct Cancer
Additional Entities: Urinary Bladder Cancer, HNSCC

196 (YLLLQTYVL; listed as Homo sapiens) [compound 196]
Other relevant organs/diseases: NHL

203 (ALLSSQLAL; listed as Homo sapiens) [compound 203]
Additional Entities: NHL, AML, NSCLC

207 (IIADLDTTIMFA; listed as Homo sapiens) [compound 207]
Other relevant organs/diseases: SCLC, NHL, Melanoma, OC

216 (WLAGDVPAA; listed as Homo sapiens) [compound 216]
Other relevant organs/diseases: SCLC, NHL
Additional Entities: AML, HNSCC

222 (ALWELSLKI; listed as Homo sapiens) [compound 222]
Other relevant organs/diseases: NHL

223 (ALWVSQPPEI; listed as Homo sapiens) [compound 223]
Other relevant organs/diseases: NHL

224 (AMEALVVEV; listed as Homo sapiens) [compound 224]
Other relevant organs/diseases: NHL
Additional Entities: AML

230 (FLQDSKVIFV; listed as Homo sapiens) [compound 230]
Other relevant organs/diseases: NHL

233 (GIIDINVRL; listed as Homo sapiens) [compound 233]
Other relevant organs/diseases: PC, NHL, Melanoma, Esophageal Cancer, Urinary bladder cancer, Uterine Cancer, Gallbladder Cancer, Bile Duct Cancer

239 (ILAGEMLSV; listed as Homo sapiens) [compound 239]
Other relevant organs/diseases: NHL, AML, Melanoma, Gallbladder Cancer, Bile Duct Cancer
Additional Entities: SCLC, HCC

246 (KLDETGVAL; listed as Homo sapiens) [compound 246]
Other relevant organs/diseases: HCC, NHL, AML, Melanoma

247 (KLKDRLPSI; listed as Homo sapiens) [compound 247]
Other relevant organs/diseases: NHL
Additional Entities: HCC

250 (LLVQEPDGLMV; listed as Homo sapiens) [compound 250]
Other relevant organs/diseases: SCLC, HCC, Melanoma, Urinary bladder cancer

252 (NLLDPGSSYLL; listed as Homo sapiens) [compound 252]
Other relevant organs/diseases: Esophageal Cancer

253 (NLWSVDGEVTV; listed as Homo sapiens) [compound 253]
Other relevant organs/diseases: NHL

265 (TLLADDLEIKL; listed as Homo sapiens) [compound 265]
Other relevant organs/diseases: Esophageal Cancer

269 (TLTDEQFLV; listed as Homo sapiens) [compound 269]
Other relevant organs/diseases: NHL, AML
Additional Entities: BRCA

272 (VLDELPPLI; listed as Homo sapiens) [compound 272]
Other relevant organs/diseases: SCLC, NHL
Additional Entities: BRCA, Uterine Cancer, HNSCC

274 (VLLEYHIAYL; listed as Homo sapiens) [compound 274]
Other relevant organs/diseases: NSCLC, SCLC, HCC, NHL, Urinary bladder cancer
Additional Entities: Melanoma, HNSCC

279 (YMAPEVVEA; listed as Homo sapiens) [compound 279]
Additional Entities: HNSCC, NHL, NSCLC, SCLC, Uterine Cancer

288 (GLAESTGLLAV; listed as Homo sapiens) [compound 288]
Other relevant organs/diseases: NHL

293 (ALDIMIPMV; listed as Homo sapiens) [compound 293]
Additional Entities: AML, CRC, Brain Cancer, Gallbladder Cancer, CCC, HNSCC, Melanoma, NHL, NSCLC, OC, Brain Cancer, RCC, SCLC, Urinary Bladder Cancer, Uterine Cancer

295 (ALLQKLQQL; listed as Homo sapiens) [compound 295]
Other relevant organs/diseases: NHL

296 (FIAPTGHSL; listed as Homo sapiens) [compound 296]
Other relevant organs/diseases: SCLC, NHL, AML, BRCA

303 (ILSQPTPSL; listed as Homo sapiens) [compound 303]
Other relevant organs/diseases: NHL, AML, Melanoma, OC
Additional Entities: Uterine Cancer

306 (VVAEELENV; listed as Homo sapiens) [compound 306]
Other relevant organs/diseases: NHL, Melanoma, OC
Additional Entities: RCC

313 (LMADLEGLHL; listed as Homo sapiens) [compound 313]
Other relevant organs/diseases: Melanoma, Urinary bladder cancer
Additional Entities: Uterine Cancer, AML

321 (RLLEFELAQL; listed as Homo sapiens) [compound 321]
Other relevant organs/diseases: SCLC, CRC, NHL, OC
Additional Entities: Brain Cancer, PrC, Uterine Cancer, AML, HNSCC

324 (SLYSALQQA; listed as Homo sapiens) [compound 324]
Other relevant organs/diseases: NHL
Additional Entities: SCLC, Uterine Cancer, AML

325 (TLENGVPCV; listed as Homo sapiens) [compound 325]
Other relevant organs/diseases: NHL

326 (VLAFLVHEL; listed as Homo sapiens) [compound 326]
Additional Entities: Esophageal Cancer, NSCLC, RCC

333 (VTLEFPQLIRV; listed as Homo sapiens) [compound 333]
Other relevant organs/diseases: SCLC, HCC, NHL
Additional Entities: BRCA

335 (YLYQEQYFI; listed as Homo sapiens) [compound 335]
Other relevant organs/diseases: SCLC, NHL, AML, Urinary bladder cancer
Additional Entities: CRC, Brain Cancer, Gallbladder Cancer, CCC, NSCLC, UterineCancer

348 (ALAKPPVVSV; listed as Homo sapiens) [compound 348]
Other relevant organs/diseases: SCLC, HCC, Melanoma, Esophageal Cancer
Additional Entities: NSCLC, Urinary Bladder Cancer, NHL, HNSCC

361 (ILQEFESKL; listed as Homo sapiens) [compound 361]
Additional Entities: AML, NHL

369 (RLLDLENSLLGL; listed as Homo sapiens) [compound 369]
Other relevant organs/diseases: AML

370 (SIFASPESV; listed as Homo sapiens) [compound 370]
Other relevant organs/diseases: Melanoma, Esophageal Cancer, Urinary bladder cancer
Additional Entities: Uterine Cancer, Gallbladder Cancer, Bile Duct Cancer, AML, HNSCC

373 (TLLADQGEIRV; listed as Homo sapiens) [compound 373]
Other relevant organs/diseases: NHL, Melanoma

376 (VLYNQRVEEI; listed as Homo sapiens) [compound 376]
Other relevant organs/diseases: Urinary bladder cancer

381 (YLLEENKIKL; listed as Homo sapiens) [compound 381]
Other relevant organs/diseases: NHL

SEQ ID NO.: 2 (ALHRPDVYL; listed as Homo sapiens)
additionally detected on non-Hodgkin lymphoma samples (positive/measured samples): 2/21
